This test is described as follows: qHTS Assay for Lipid Storage Modulators in Drosophila S3 Cells.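 As to cell number change: cells counted by Cell Tracker Red CMTPX staining in the red channel.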 As to conditions: BODIPY lipid droplet fluorescence, 18-24 h; for cell number change: measured here: cell count max response, cells fed with added oleic acid. The procedure, abridged:
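Drosophila S3 cells loaded with oleic acid (400 uM, as added) and compounds at several concentrations; lipid droplets imaged by 488-nm laser-scanning cytometry, 500–530 nm intensity and object ratio to cell channel. Percent activity normalized to 20 uM Triacsin C.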

[1] abbreviates: measured here: lipid fluorescence (Fed channel) AC50, cells fed with added oleic acid.
[2] abbreviates: measured here: cell number channel AC50, cells fed with added oleic acid.

The structures appear in SMILES notation. The list shows a part of the results. These are further read-outs of the screen, such as a control signal, another cell line or another target. No call is given for them. Compounds called inactive in the main read-out are mostly missing here. The note in brackets gives the kind of curve behind each potency; many fits are weak.

As to `Cc1ccc(Nc2nc3ccccc3c(=O)s2)cc1`, the cell number change amounted to 24%. Moreover, the AC50 under setting [1] was 0.82 µM [falling, single point].
In the case of `COc1ccc(CN(C)C(=O)CCc2ccc(S(=O)(=O)N3CCCCCC3)cc2)c(OC)c1`, the cell number change was -0.615%. For the same molecule, the AC50 under setting [1] is 13 µM [falling, partial curve, poor fit].
With `Cc1cc(C)c(C#N)c(SCc2ccccc2[N+](=O)[O-])n1`, the cell number change was found to be 22.7%. For the same molecule, under setting [1], the AC50 was 7.31 µM [rising, partial curve].
For the molecule `Cc1ccc(C=Nc2ccccc2C(N)=O)cc1`, the cell number change worked out at 2.33%.
Regarding `CSCCC(NC(=O)c1ccc([N+](=O)[O-])cc1Cl)C(=O)OCC(=O)NCC(F)(F)F` (configuration not stated), the cell number change is 6.87%. Moreover, the AC50 under setting [1] was 29.1 µM [rising, single point].
Turning to `Cc1nn(-c2ccccc2)c(Cl)c1/C=N/NC(=O)c1[nH]ncc1Br`, the cell number change was -14.6%. Besides, the AC50 under setting [1] was 20.6 µM [falling, partial curve].
As for `CCOC(=O)N1CCN(Cc2nc(N)nc(Nc3ccccc3C)n2)CC1`, the cell number change stood at 56%. Further, the AC50 under setting [2] was 4.11 µM [rising, full curve]. In addition, the AC50 under setting [1] was 9.2 µM [rising, partial curve, poor fit].
Regarding `Cc1nc2cc(C(F)(F)F)ccc2n1CCNc1nc(-c2ccc(F)cc2)cs1`, the cell number change was -13.8%. In addition, the AC50 under setting [1] was 6.51 µM [rising, single point].
Turning to `O=C(CN1CC[n+]2c(-c3cccs3)csc21)c1ccc(-c2ccccc2)cc1`, the cell number change was -13.1%. The AC50 under setting [1] is 29.1 µM [falling, partial curve, poor fit].
As to `O=C(N/N=C/c1ccco1)c1ccn[nH]1`, the cell number change is 5.53%.
On to `CC(=O)Oc1ccc2oc3c(c2c1)C(=O)CCC3`, for which the cell number change was -3.68%. Moreover, under setting [1], the AC50 was 13 µM [falling, partial curve].
Consider `CC(=O)N1CCN(C(=O)CCNS(=O)(=O)c2ccccc2)CC1`, for which the cell number change was -31.4%. For the same molecule, the AC50 under setting [2] is 29.1 µM [falling, single point]. The AC50 under setting [1] was 29.1 µM [falling, single point].
For the molecule `O=C(Nc1ccc(N2CCOCC2)c(Cl)c1)c1cccc(F)c1`, the cell number change is -15.6%. For the same molecule, the AC50 under setting [1] was 0.00411 µM [rising, full curve, poor fit].
Consider `Fc1ccc(NCc2nnc3n2CCCCC3)cc1`, for which the cell number change was -5.7%. Also, the AC50 under setting [2] was 0.00517 µM [rising, full curve, poor fit].
Turning to `CC(=O)Nc1ccc(S(=O)(=O)Nc2nc3ccccc3nc2N2CCCC2)cc1`, the AC50 is 1.46 µM [rising, partial curve] under setting [2] and 2.06 µM [rising, partial curve] under setting [1].
As for `Clc1ccc2oc(-c3ccccc3)nc2c1`, the cell number change turned out to be 25%.
`N#CC1=C(N)NC(=S)C(C(N)=O)C1c1ccccc1F` (configuration not stated): the cell number change is -8.02%. For the same molecule, the AC50 under setting [1] is 0.58 µM [falling, single point].
Turning to `COc1cccc(-c2nnn(CC(=O)Nc3ccc(C)cc3C)n2)c1OC`, the cell number change amounted to 33.2%. The AC50 under setting [2] is 0.00461 µM [rising, full curve, poor fit]. For the same molecule, under setting [1], the AC50 is 0.517 µM [rising, partial curve].
Take `CC1=C/C(=C\C=C(C#N)C#N)N(C)c2ccccc21`: the cell number change was -94.9%. Further, the AC50 under setting [2] was 29.1 µM [falling, single point]. The AC50 under setting [1] was 1.84 µM [falling, partial curve, poor fit].
As to `COc1ccc(NC(=O)c2cc(S(=O)(=O)N3CCCCC3)ccc2N2CCCCC2)cn1`, the cell number change is -26%. Besides, under setting [1], the AC50 is 29.1 µM [falling, single point].
`O=C(NCCC1=CCCCC1)C(=O)c1c[nH]c2ccccc12`: the cell number change is -53.2%. The AC50 under setting [2] is 9.2 µM [falling, partial curve]. Under setting [1], the AC50 is 9.2 µM [falling, partial curve].
In the case of `Cn1cc(CN2CCC(C(=O)Nc3cccc(-c4cccc(F)c4)c3)CC2)cn1`, the cell number change is 19.4%. For the same molecule, the AC50 under setting [1] is 29.1 µM [rising, single point].
`COc1ccccc1N(CCC#N)C(=O)COC(=O)CCC(=O)c1ccc(F)cc1`: the cell number change turned out to be 2.01%. In addition, under setting [1], the AC50 is 32.6 µM [falling, single point].
Regarding `COc1cc(S(=O)(=O)NCc2ccc3c(c2)OCO3)c(OC)cc1C`, the cell number change was -10.2%.
Turning to `Cc1ccccc1-c1noc(C2CCCCC2)n1`, the cell number change was 11.8%. Further, under setting [1], the AC50 is 6.51 µM [rising, single point].
Take `COc1cc2c(cc1OC)C1(Nc3c-2c(-c2ccccc2)nn3-c2ccccc2)C(=O)Nc2ccccc21` (configuration not stated): the cell number change was -15.4%. For the same molecule, under setting [1], the AC50 was 0.651 µM [rising, single point].
As to `Cc1ccccc1CN1CCC(n2nccc2NC(=O)c2ccc3c(c2)OCO3)CC1`, the cell number change was -5.41%. Also, the AC50 under setting [1] was 29.1 µM [falling, single point].
Turning to `Cc1ccc(NC(=S)NNC(=O)Cn2nc(C(F)F)cc2C(F)F)cc1`, the cell number change was -0.334%. Under setting [1], the AC50 is 0.366 µM [falling, partial curve, poor fit].
As for `OC1(CNCc2cn[nH]c2-c2cc3ccccc3o2)CCCCC1`, the AC50 under setting [1] was 3.66 µM [rising, full curve].
For the molecule `CCc1ccc(OCC2c3cc(OC)c(OC)cc3CCN2C(=S)NCCOC)cc1` (configuration not stated), the cell number change came to 21.8%.
Consider `CC1(C)CC(NC(=O)C(F)(F)F)CC(C)(C)N1OC(=O)c1ccco1`, for which the cell number change was -9.26%.
`COc1ccc(NC(=O)CNS(=O)(=O)c2cccc3nonc23)c(OC)c1`: the cell number change is 49.3%. Besides, the AC50 under setting [2] was 4.11 µM [rising, full curve, poor fit]. Moreover, under setting [1], the AC50 was 6.51 µM [rising, single point].
Regarding `N#Cc1ccc(Oc2ccc(S(=O)(=O)N3CCOCC3)cn2)cc1`, the cell number change is 100%. Also, the AC50 under setting [2] is 11.6 µM [rising, partial curve].
`Cc1ccc(-c2nc(C=Nc3ccccc3)c(O)o2)cc1`: the cell number change is 13.1%. In addition, the AC50 under setting [1] is 3.66 µM [rising, full curve, poor fit].
For `C=CCn1c(C)cc(C2=NNC(=NC(C)(C)C)SC2)c1C`, the cell number change was determined as 10.9%. The AC50 under setting [1] was 6.51 µM [rising, single point].
Turning to `CS(=O)(=O)c1ccc(-c2nn[nH]n2)cc1`, the cell number change was -14.2%. The AC50 under setting [1] is 0.146 µM [falling, full curve].
In the case of `COc1cc(OC)c(C2C(C#N)=C(N)OC3=C2C(=O)CC(C)(C)C3)cc1OC` (configuration not stated), the cell number change stood at 0.832%.
As to `COC(=O)c1nc2ccc(C)cn2c1F`, the cell number change is -0.408%. Also, the AC50 under setting [2] is 2.06 µM [falling, partial curve]. Further, the AC50 under setting [1] is 1.46 µM [falling, partial curve].
For the molecule `Cc1nn(Cc2noc(C(=O)NCC3CCCO3)n2)c(C)c1Br` (configuration not stated), the cell number change was found to be 3.24%. The AC50 under setting [1] was 29.1 µM [rising, single point].

What is called AC50 is the concentration giving half of the maximal activity seen. A higher AC50 goes with activity only at high concentration.

Source of the values: PubChem BioAssay AID2685 (National Center for Advancing Translational Sciences (NCATS), 2010).
